This is an account of results in article doi:10.1101/2022.11.30.518502.

The assay concerns the target Myc-Tau^P301L (human). Briefly: co-IP.

Results are given in words; binding and its absence hold for the method and conditions named. Binding seen in cells or lysates may run through a third protein. Binding calls can cover weak binding; strength is not graded here.

B1: TOM40 (protein, UniProt O96008 1-361)
chain: MGNVLAASSPPAGPPPPPAPALVGLPPPPPSPPGFTLPPLGGSLGAGTSTSRSSERTPGAATASASGAAEDGACGCLPNPGTFEECHRKCKELFPIQMEGVKLTVNKGLSNHFQVNHTVALSTIGESNYHFGVTYVGTKQLSPTEAFPVLVGDMDNSGSLNAQVIHQLGPGLRSKMAIQTQQSKFVNWQVDGEYRGSDFTAAVTLGNPDVLVGSGILVAHYLQSITPCLALGGELVYHRRPGEEGTVMSLAGKYTLNNWLATVTLGQAGMHATYYHKASDQLQVGVEFEASTRMQDTSVSFGYQLDLPKANLLFKGSVDSNWIVGATLEKKLPPLPLTLALGAFLNHRKNKFQCGFGLTIG
In the case of B1, the binding entry is recorded as “binds”.

B2: TIM23 (protein, UniProt O14925 1-209)
chain: MEGGGGSGNKTTGGLAGFFGAGGAGYSHADLAGVPLTGMNPLSPYLNVDPRYLVQDTDEFILPTGANKTRGRFELAFFTIGGCCMTGAAFGAMNGLRLGLKETQNMAWSKPRNVQILNMVTRQGALWANTLGSLALLYSAFGVIIEKTRGAEDDLNTVAAGTMTGMLYKCTGGLRGIARGGLTGLTLTSLYALYNNWEHMKGSLLQQSL
B2: the binding entry is given as “no binding”.
